PubChem BioAssay AID1259331 – Drosophila RNAi Screening Center – 2017

Purpose: 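Genes whose knock-down changes cell survival under toxic zinc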 (primary screen)
Cells: Drosophila S2R+ cells
Reagent: long dsRNA against Drosophila genes
Time to read-out: 5 days (4 days knock-down, then 1 day zinc)
Treatment: zinc chloride at 15 mM final level for 1 day
Detection: 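Total cellular ATP measured by luciferase luminescence as a viability proxy, turned into Z scores from three plate copies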
Reading the numbers: mean Z score: higher = more ATP than other wells, better survival under zinc; ATP luminescence: higher = more ATP, more viable cells
Hit rule: 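a reagent is called a hit when its Z score is above 1.5 or below -1.5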
Meaning of the calls: active = hit, ATP up or down; inactive = not a hit
The deposit covers about 3,100 reagents; below is a random part of them. In the full data, 126 (4.1%) are marked active. 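Calls are per reagent; zinc was so toxic that few knock-downs lowered ATP further, so most hits raise ATP.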 The raw values are shown without normalisation. Reagents against one gene are numbered here. Names joined by + are all predicted targets of the reagent. Not given: the amount of reagent.

Gene	reagent no.	mean Z score	ATP luminescence, replicate 1	ATP luminescence, replicate 2	activity call
rho-5 (rhomboid-5)	1	0.161	65674	45285	inactive
rho-5 (rhomboid-5)	2	-0.4	56862	52658	inactive
CG14856	1	-0.272	36199	52452	inactive
PIG-N (Phosphatidylinositol glycan anchor biosynthesis class N)	1	0.0929	82502	73906	inactive
Ir31a (Ionotropic receptor 31a)	1	-0.0735	52504	55910	inactive
Ctns (Cystinosin)	1	6.2	91059	1.38e5	active
Ctns (Cystinosin)	2	8.4	1.88e5	1.87e5	active
CG31693	1	-0.348	36576	40639	inactive
CG31693	2	-0.0992	62673	54108	inactive
CG44247 + veg (retired record)	1	-0.00783	61401	74558	inactive
asRNA:CR43429 + Impbeta11	1	0.189	58626	72242	inactive
asRNA:CR43429 + Impbeta11	2	1.21	80784	76888	inactive
Gr61a (Gustatory receptor 61a)	1	-0.627	62381	60941	inactive
Gr61a (Gustatory receptor 61a)	2	0.146	58854	57659	inactive
Gr47b (Gustatory receptor 47b)	1	-0.154	38650	43301	inactive
Gr47b (Gustatory receptor 47b)	2	-0.29	59045	55042	inactive
Sr-CII (Scavenger receptor class C, type II)	1	-0.525	58763	65314	inactive
Sr-CII (Scavenger receptor class C, type II)	2	-0.274	52401	51407	inactive
BicC (Bicaudal C)	1	0.0816	57991	52898	inactive
BicC (Bicaudal C)	2	-0.186	58574	58488	inactive
Or47a (Odorant receptor 47a)	1	-0.174	75415	72157	inactive
kug (kugelei)	1	-0.566	27542	28313	inactive
sing (singles bar)	1	0.142	46177	45028	inactive
sing (singles bar)	2	-0.328	58797	54339	inactive
pHCl-2 (pH-sensitive chloride channel 2)	1	0.266	73889	66960	inactive
Duox (Dual oxidase)	1	-0.586	36253	40332	inactive
Duox (Dual oxidase)	2	0.877	78066	64919	inactive
mtt (mangetout)	1	0.851	52538	51441	inactive
mtt (mangetout)	2	-0.144	35445	42628	inactive
mtt (mangetout)	3	-0.414	63599	68384	inactive
CG42288	1	-0.558	60632	62621	inactive
Or2a (Odorant receptor 2a)	1	-0.782	50488	55745	inactive
Or2a (Odorant receptor 2a)	2	-0.134	52116	56688	inactive
Scgdelta (Sarcoglycan delta)	1	-0.274	59569	63496	inactive
tipE (temperature-induced paralytic E)	1	-0.307	27076	31560	inactive
tipE (temperature-induced paralytic E)	2	0.0258	48337	49572	inactive
Inx6 (Innexin 6)	1	-0.357	35496	45622	inactive
Inx6 (Innexin 6)	2	-0.189	52879	53430	inactive
CG12194	1	-0.155	44617	39560	inactive
CG12194	2	0.0152	60581	58075	inactive
CG8028	1	-0.118	41496	44788	inactive
CG14777	1	-0.27	60708	62457	inactive
Npc1b (Niemann-Pick type C-1b)	1	-0.169	42071	38539	inactive
Npc1b (Niemann-Pick type C-1b)	2	-0.477	45760	55632	inactive
pippin	1	0.0846	32324	32616	inactive
pippin	2	1	81566	67273	inactive
CG30043	1	-0.482	60967	64439	inactive
CG30043	2	0.228	48217	56325	inactive
Loxl1 (Lysyl oxidase-like 1)	1	0.321	71059	71690	inactive
CG10465	1	-0.277	45851	37463	inactive
CG10465	2	-0.198	51715	64490	inactive
CG12438	1	0.488	55788	38925	inactive
CG31262	1	-0.399	33579	53618	inactive
CG31262	2	-0.312	49848	53893	inactive
Or67a (Odorant receptor 67a)	1	-0.0154	89052	56071	inactive
CG1688	1	-0.414	41531	42885	inactive
sut2 (sugar transporter 2)	1	-0.687	26487	27664	inactive
sut2 (sugar transporter 2)	2	0.718	58490	62295	inactive
CG3164	1	-0.278	41702	43759	inactive
RyR (Ryanodine receptor)	1	-0.156	1.05e5	70064	inactive
RyR (Ryanodine receptor)	2	0.097	65142	58986	inactive
VAChT + ChAT	1	-0.217	35736	56291	inactive
Pex13 (Peroxin 13)	1	-0.505	25793	29805	inactive
Sema5c (Semaphorin 5c)	1	0.372	82467	67602	inactive
Sema5c (Semaphorin 5c)	2	0.168	68949	47137	inactive
ItgaPS4 (Integrin alphaPS4 subunit)	1	0.21	72279	77234	inactive
Fur2 (Furin 2)	1	0.0357	65691	67612	inactive
Or22c (Odorant receptor 22c)	1	-0.0961	43691	44994	inactive
Or22c (Odorant receptor 22c)	2	-0.0463	63667	53502	inactive

No new results follow: an excerpt of the list.
Gene	reagent no.	mean Z score	ATP luminescence, replicate 1	ATP luminescence, replicate 2	activity call
rho-5 (rhomboid-5)	1	0.161	65674	45285	inactive
rho-5 (rhomboid-5)	2	-0.4	56862	52658	inactive
CG14856	1	-0.272	36199	52452	inactive
